The list is a part of this screen's results and no random one: it is rich in T/C values a quarter to a half above the control, in often repeated tests (any T/C) and in doses without a T/C. Other doses and runs of a compound stand elsewhere. T/C: endpoint of the treated group in % of that of the vehicle group. Some doses have a count of surviving animals in place of a T/C: the source holds a T/C of zero for them, seemingly a mark for toxic or unscored doses. Some doses without a T/C left all or most animals alive at the check, yet need not have been tolerated: survival well below the control is almost never listed, so the zero probably covers shortened survival too. Survivors were counted at the toxicity check, usually on the fifth day, unless a day is given; later deaths do not show. Schedules are NCI's codes, taken here to give the interval after Q, in days (D) or hours (H), and the number of doses after X. Some doses were run more than once; the results are listed from low to high. For survival time, the PubChem record calls one and a half times the control and up active, and a quarter to a half above the control has no call in these data; cut-offs in other NCI protocols can differ. Counts like (3×) give the number of equal values in this list. Some T/C values are followed by the survivors on the day toxicity was checked, most often the fifth; where none is given, no animal had died by that day.
System: CD2F1 mice, ip reticulum cell sarcoma, survival T/C
Experiment: NCI In Vivo Anticancer Drug Screen. Data for tumor model Reticulum Cell Sarcoma (Kelley Mouse) (intraperitoneal) in CD2F1 (CDF1) mice
Details: T/C endpoint: median survival time, higher T/C = longer survival
Description: The antitumor activity of compounds was measured in mice bearing transplantable tumors. Survival or tumor size were measured and the results are expressed as the measurement made in the treated group (T) divided by the measurement made in the vehicle treated control group (C). The tumor model used in this assay is Reticulum Cell Sarcoma (Kelley Mouse) (intraperitoneal) in CD2F1 (CDF1) mice

[1] = dose: 12.5 mg/kg/injection, schedule: Q01DX010 (sc), vehicle: steroid suspending solution
[2] = dose: 50.0 mg/kg/injection, schedule: Q01DX010 (sc), vehicle: steroid suspending solution
[3] = dose: 100.0 mg/kg/injection, schedule: Q01DX010 (sc), vehicle: steroid suspending solution
[4] = dose: 200.0 mg/kg/injection, schedule: Q01DX010 (sc), vehicle: steroid suspending solution
[5] = dose: 25.0 mg/kg/injection, schedule: Q01DX010 (ip), vehicle: saline
[6] = dose: 2.5 mg/kg/injection, schedule: Q01DX010 (ip), vehicle: saline
[7] = dose: 20.0 mg/kg/injection, schedule: Q01DX010 (ip), vehicle: saline
[8] = dose: 5.0 mg/kg/injection, schedule: Q01DX010 (ip), vehicle: alkali diluted with saline
[9] = dose: 0.19 mg/kg/injection, schedule: Q01DX010 (ip), vehicle: other
[10] = dose: 0.38 mg/kg/injection, schedule: Q01DX010 (ip), vehicle: other
[11] = dose: 0.75 mg/kg/injection, schedule: Q01DX010 (ip), vehicle: other
[12] = dose: 1.5 mg/kg/injection, schedule: Q01DX010 (ip), vehicle: other
[13] = dose: 3.0 mg/kg/injection, schedule: Q01DX010 (ip), vehicle: other

With `C[C@]12C=CC(=O)C=C1CC[C@@H]1[C@@H]2C(=O)C[C@@]2(C)[C@H]1CC[C@]2(O)C(=O)CO` the T/C [1] was 86 (2×) and 100 % of control, the survivor count [1] was 6 of 6 and the T/C (dose: 25.0 mg/kg/injection, schedule: Q01DX010 (sc), vehicle: steroid suspending solution) was 86, 94 [5 of 6 alive], 97, 108 % of control. For the same compound, the T/C [2] was 86 % of control (2×), the survivor count [2] was 5 of 6 and 6 of 6 and the T/C [3] was 87 % of control. The survivor count [3] was 3 of 6 and 6 of 6, the T/C [4] was 87 and 90 % of control and the survivor count [4] was 5 of 6 and 6 of 6.
With `CN(C)c1ccc(Nc2c3ccccc3nc3ccccc23)cc1` the T/C (dose: 120.0 mg/kg/injection, schedule: Q01DX010 (ip), vehicle: saline) was 125 % of control.
`O=NN(CCCl)C(=O)NCCCl` was tested, and the survivor count [5] was 5 of 6 and 6 of 6 and the survivor count (dose: 50.0 mg/kg/injection, schedule: Q01DX010 (ip), vehicle: saline) was 1 of 6 and 2 of 6.
With `COc1cc(-c2ccc(Nc3ccccc3C(=O)O)c(OC)c2)ccc1Nc1ccccc1C(=O)O` the T/C [5] was 129 % of control and the survivor count (dose: 200.0 mg/kg/injection, schedule: Q01DX010 (ip), vehicle: saline) was 3 of 6.
`Nc1nc(=S)c2[nH]cnc2[nH]1` was tested, and the T/C [6] was 132 and 138 % of control.
For `NC(Cc1ccc(N(CCCl)CCCl)cc1)C(=O)O` (centres undefined), the T/C [6] was 137 % of control, the T/C (dose: 5.0 mg/kg/injection, schedule: Q01DX010 (ip), vehicle: saline) was 146 % of control and the survivor count [7] was 6 of 6.
For `N#[N+]c1cnc([O-])[nH]c1=O`, the T/C (dose: 10.0 mg/kg/injection, schedule: Q01DX010 (ip), vehicle: saline) was 127 % of control and the survivor count [7] was 3 of 6.
With `CCCCNc1ncnc2c1cnn2C` the survivor count (dose: 250.0 mg/kg/injection, schedule: Q01DX010 (ip), vehicle: saline) was 0 of 6 and 1 of 6.
For `S=c1nc[nH]c2nc[nH]c12`, the T/C [8] was 91, 114, 118 % of control, the survivor count [8] was 6 of 6 and the T/C (dose: 10.0 mg/kg/injection, schedule: Q01DX010 (ip), vehicle: alkali diluted with saline) was 98, 109, 113, 122 % of control. The T/C (dose: 20.0 mg/kg/injection, schedule: Q01DX010 (ip), vehicle: alkali diluted with saline) was 122, 123 [5 of 6 alive], 130, 134 % of control, the T/C (dose: 40.0 mg/kg/injection, schedule: Q01DX010 (ip), vehicle: alkali diluted with saline) was 118, 120 (2×), 138 % of control and the T/C (dose: 80.0 mg/kg/injection, schedule: Q01DX010 (ip), vehicle: alkali diluted with saline) was 107, 131, 147, 153 % of control.
For `O=C(Nc1ccc(C2=NCCN2)cc1)c1ccc(C(=O)Nc2ccc(C3=NCCN3)cc2)cc1`, the T/C (dose: 4.0 mg/kg/injection, schedule: Q01DX010 (ip), vehicle: other) was 146 % of control and the T/C (dose: 64.0 mg/kg/injection, schedule: Q01DX010 (ip), vehicle: other) was 140 % of control.
In the case of `CN(Cc1cnc2nc(N)nc(N)c2n1)c1ccc(C(=O)N[C@@H](CCC(=O)O)C(=O)O)cc1`, the T/C [9] is reported as 87, 88, 111 % of control, the survivor count [9] is reported as 6 of 6 and the T/C [10] is reported as 89 and 95 % of control. For the same compound, the survivor count [10] was 6 of 6, the T/C [11] was 92, 93, 94 % of control and the survivor count [11] was 6 of 6. The T/C [12] was 89 and 96 % of control, the survivor count [12] was 6 of 6 and the T/C [13] was 86 and 92 % of control. The survivor count [13] was 6 of 6.
